{"source": "patent US6225350A", "about": "“Butyrate prodrugs derived from lactic acid” (Vertex Pharmaceuticals, Inc., priority 1999, dated 2001)", "origin": "cited, not measured here", "tested_on": "wild-type CFTR gene", "settings": "in the presence of butyrate; cited from earlier work", "note": "For at least one compound, name, drawing or mass did not settle the structure.", "data": [{"smiles": "CCCC(=O)O", "note": "[butyrate]", "values": [{"measurement": "retroviral expression of the wild-type CFTR gene", "result": "enhanced"}]}]}
